Data source: PubChem BioAssay AID493246 (Drosophila RNAi Screening Center, 2011)
Test: 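Genome-wide search for dsRNAs that reduce cell number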 (primary screen). Cells: Drosophila Kc and S2R+ cells. Reagent: long dsRNA against Drosophila genes. Read-out: 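Raw, unnormalised count of remaining cells in each well; per-plate z-scores of cell number underlie the calls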. Scale: Kc cell number and S2R+ cell number: higher = more cells remaining. Active means: 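Counted as a hit if cell number falls by a z-score of at least 3 within its plate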.
In all, the deposit lists about 21,000 reagents; below is an unselected part of those that have a named target and a result. In the full data, 429 (2%) were called active. 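Values are raw and not normalised between plates; calls rest on per-plate z-scores that were not deposited.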 A plus sign joins genes that one reagent is predicted to hit. No sequences are given here. Not stated in the record: the amount of reagent, the time to read-out.

| gene | dsRNA | Kc cell number, rep 1 | Kc cell number, rep 2 | S2R+ cell number, rep 1 | S2R+ cell number, rep 2 | activity call |
| --- | --- | --- | --- | --- | --- | --- |
| Sec20 (Secretory 20) | DRSC12295 | 1.64e6 | 1.82e6 | 1.33e6 | 1.49e6 | inactive |
| sesB (stress-sensitive B) | DRSC20371 | 1.23e6 | 1.33e6 | 9.23e5 | 9.77e5 | inactive |
| Actn3 (alpha actinin 3) | DRSC14106 | 1.34e6 | 1.35e6 | 1.10e6 | 1.22e6 | inactive |
| lt (light) | DRSC03759 | 1.41e6 | 1.51e6 | 1.23e6 | 3.26e5 | inactive |
| Rala (Ras-like protein A) | DRSC18703 | 1.57e6 | 1.54e6 | 1.03e6 | 1.18e6 | inactive |
| dmpd (dampened) | DRSC06092 | 1.43e6 | 1.43e6 | 1.12e6 | 1.21e6 | inactive |
| VAChT + ChAT | DRSC13312 | 1.60e6 | 1.62e6 | 1.15e6 | 1.16e6 | inactive |
| vari (varicose) | DRSC03202 | 1.45e6 | 1.56e6 | 1.35e6 | 3.28e5 | inactive |
| CG11231 (retired record) | DRSC17207 | 1.56e6 | 1.52e6 | 1.12e6 | 1.24e6 | inactive |
| psidin (phagocyte signaling impaired) | DRSC15660 | 1.41e6 | 1.34e6 | 1.09e6 | 1.19e6 | inactive |
| CG33792 | DRSC05355 | 1.75e6 | 1.81e6 | 1.07e6 | 1.33e6 | inactive |
| CG14687 | DRSC14910 | 1.45e6 | 1.58e6 | 1.33e6 | 1.46e6 | inactive |
| Ets65A (Ets at 65A) | DRSC09968 | 1.45e6 | 1.33e6 | 1.07e6 | 1.21e6 | inactive |
| Ets65A (Ets at 65A) | DRSC10738 | 1.30e6 | 1.40e6 | 1.32e6 | 1.05e6 | inactive |
| Ets65A (Ets at 65A) | DRSC11164 | 1.58e6 | 1.53e6 | 1.45e6 | 1.20e6 | inactive |
| CG33271 | DRSC10583 | 1.19e6 | 1.23e6 | 1.04e6 | 1.11e6 | inactive |
| Ir75c (Ionotropic receptor 75c) | DRSC10190 | 1.28e6 | 1.33e6 | 1.21e6 | 1.36e6 | inactive |
| Acp76A (Accessory gland protein 76A) | DRSC09665 | 1.56e6 | 1.78e6 | 1.16e6 | 1.32e6 | inactive |
| CG4860 | DRSC15664 | 1.34e6 | 1.41e6 | 1.08e6 | 1.17e6 | inactive |
| Spn42Dc (Serpin 42Dc) | DRSC05010 | 1.67e6 | 1.64e6 | 1.35e6 | 1.52e6 | inactive |
| CG42535 | DRSC09041 | 1.34e6 | 1.47e6 | 1.13e6 | 1.26e6 | inactive |
| GMF (Glia maturation factor) | DRSC01928 | 1.50e6 | 1.58e6 | 1.47e6 | 1.38e6 | inactive |
| Dsp1 (Dorsal switch protein 1) | DRSC20315 | 3.01e5 | 3.43e5 | 3.28e5 | 4.01e5 | active |
| RNaseZ (Ribonuclease Z) | DRSC06845 | 1.55e6 | 1.68e6 | 1.16e6 | 1.34e6 | inactive |
| Pfdn4 (Prefoldin 4) | DRSC09761 | 1.35e6 | 1.32e6 | 1.13e6 | 1.15e6 | inactive |
| Dhps (Deoxyhypusine synthase) | DRSC10948 | 1.72e6 | 1.56e6 | 1.16e6 | 1.15e6 | inactive |
| RpL30 (Ribosomal protein L30) | DRSC02087 | 1.11e6 | 1.22e6 | 7.02e5 | 2.28e5 | inactive |
| CG34136 | DRSC01833 | 5.32e5 | – | 8.68e5 | – | inactive |
| CG33309 | DRSC01421 | 1.56e6 | 1.54e6 | 9.83e5 | 1.19e6 | inactive |
| Gbp2 (Growth-blocking peptide 2) | DRSC06069 | 1.42e6 | 1.48e6 | 1.11e6 | 1.00e6 | inactive |
| Mpcp1 | DRSC07337 | 1.63e6 | 1.73e6 | 1.26e6 | 1.43e6 | inactive |
| chinmo (Chronologically inappropriate morphogenesis) | DRSC00292 | 1.55e6 | 1.47e6 | 9.16e5 | 1.06e6 | inactive |
| chinmo (Chronologically inappropriate morphogenesis) | DRSC00485 | 1.60e6 | 1.68e6 | 1.07e6 | 1.19e6 | inactive |
| chinmo (Chronologically inappropriate morphogenesis) | DRSC00509 | 1.44e6 | 1.58e6 | 8.36e5 | 9.89e5 | inactive |
| Ugt37D1 (UDP-glycosyltransferase family 37 member D1) | DRSC02645 | 1.51e6 | 1.60e6 | 1.15e6 | 1.26e6 | inactive |
| CG32808 | DRSC17689 | 1.35e6 | 1.49e6 | 1.07e6 | 1.08e6 | inactive |
| CG4866 | DRSC06899 | 1.54e6 | 1.67e6 | 1.32e6 | 1.51e6 | inactive |
| Fer3 (48 related 3) | DRSC16133 | 1.55e6 | 1.67e6 | 1.35e6 | 1.37e6 | inactive |
| CG33225 | DRSC03881 | 5.69e5 | – | 9.70e5 | – | inactive |
| CG31678 | DRSC02618 | 9.58e5 | 1.08e6 | 7.05e5 | 5.47e5 | inactive |
| CG31678 | DRSC02619 | 1.57e6 | 1.71e6 | 1.15e6 | 2.68e5 | inactive |
| LysD + LysB + LysC (retired record) | DRSC21249 | 1.50e6 | 1.57e6 | 1.13e6 | 1.24e6 | inactive |
| CG42326 | DRSC06483 | 1.60e6 | 1.74e6 | 1.38e6 | 1.52e6 | inactive |
| CG42326 | DRSC06484 | 1.53e6 | 1.68e6 | 1.27e6 | 1.46e6 | inactive |
| lncRNA:CR42862 (long non-coding RNA:CR42862) | DRSC08348 | 1.61e6 | 1.61e6 | 1.23e6 | 1.33e6 | inactive |
| Mes2 (Mesoderm-expressed 2) | DRSC11593 | 1.79e6 | 1.78e6 | 8.61e5 | 1.04e6 | active |
| Mes2 (Mesoderm-expressed 2) | DRSC11632 | 1.59e6 | 1.66e6 | 7.36e5 | 8.68e5 | inactive |
| bond (james bond) | DRSC16135 | 1.43e6 | 1.52e6 | 1.07e6 | 1.10e6 | inactive |
| CG40485 | DRSC20624 | 1.42e6 | 1.47e6 | 8.88e5 | 9.95e5 | inactive |
| ben (bendless) | DRSC20310 | 5.06e5 | – | 8.67e5 | – | inactive |
| ben (bendless) | DRSC21261 | 1.51e6 | 1.59e6 | 1.11e6 | 1.22e6 | inactive |
| Cyp4ac1 (Cytochrome P450 4ac1) | DRSC03302 | 1.51e6 | 1.52e6 | 5.42e5 | 6.44e5 | inactive |
| beat-IIIa (beaten path IIIa) | DRSC01575 | 1.47e6 | 1.47e6 | 9.16e5 | 1.08e6 | inactive |
| beat-IIIa (beaten path IIIa) | DRSC01577 | 1.53e6 | 1.59e6 | 9.50e5 | 1.17e6 | inactive |
| beat-IIIa (beaten path IIIa) | DRSC02178 | 1.62e6 | 1.65e6 | 1.32e6 | 1.44e6 | inactive |
| CG3021 | DRSC18165 | 1.50e6 | 1.55e6 | 1.06e6 | 1.21e6 | inactive |
| CG3021 | DRSC18652 | 1.74e6 | 1.79e6 | 1.09e6 | 1.26e6 | inactive |
| qsm (quasimodo) | DRSC05896 | 6.83e5 | – | 7.92e5 | – | inactive |
| qsm (quasimodo) | DRSC06393 | 1.61e6 | 1.48e6 | 1.01e6 | 1.31e6 | inactive |

Ordered by “Kc cell number, rep 2” (highest first): some entries from above.
| gene | dsRNA | Kc cell number, rep 1 | Kc cell number, rep 2 | S2R+ cell number, rep 1 | S2R+ cell number, rep 2 | activity call |
| --- | --- | --- | --- | --- | --- | --- |
| chinmo (Chronologically inappropriate morphogenesis) | DRSC00485 | 1.60e6 | 1.68e6 | 1.07e6 | 1.19e6 | inactive |
| chinmo (Chronologically inappropriate morphogenesis) | DRSC00509 | 1.44e6 | 1.58e6 | 8.36e5 | 9.89e5 | inactive |
| chinmo (Chronologically inappropriate morphogenesis) | DRSC00292 | 1.55e6 | 1.47e6 | 9.16e5 | 1.06e6 | inactive |
